Data as given in PubChem BioAssay AID2685 (National Center for Advancing Translational Sciences (NCATS), 2010).
The list shows a part of the results. Further columns of the screen follow, without active or inactive calls. The list favours compounds with an active or inconclusive main result. The note in brackets gives the kind of curve behind each potency; many fits are weak.

Assay: qHTS Assay for Lipid Storage Modulators in Drosophila S3 Cells;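 on cell number change: cells counted by Cell Tracker Red CMTPX staining in the red channel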
Conditions: BODIPY lipid droplet fluorescence, 18-24 h; for cell number change: measured here: cell count max response, cells fed with added oleic acid
How it was run: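 Laser-scanning cytometry quantifies lipid droplet accumulation (500–530 nm total intensity; droplet/cell object ratio) in oleic acid-fed (400 uM added) Drosophila S3 cells treated with a concentration series. 20 uM Triacsin C defined 100% inhibition.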

[1] = measured here: cell number channel AC50, cells fed with added oleic acid
[2] = measured here: lipid fluorescence (Fed channel) AC50, cells fed with added oleic acid

| SMILES | cell number change [%] | AC50 [1] | AC50 [2] |
| --- | --- | --- | --- |
| Cc1ccc(S(=O)(=O)N(C)C)cc1NC(=S)NC(=O)C12CC3CC(CC(C3)C1)C2 | -41.6 | 2.06 µM [falling, full curve] | 3.26 µM [falling, partial curve, poor fit] |
| COc1ccccc1CN1CC(C(=O)N(C)Cc2nc(C)cs2)CCC1=O (centres undefined) | -11 | – | 0.058 µM [falling, full curve, poor fit] |
| O=C(CN1CCCCCCC1)Nc1cccc(Cl)c1Cl | – | 0.00517 µM [falling, full curve, poor fit] | 0.00461 µM [falling, full curve] |
| C[C@@H]1NC(=O)[C@H](CCC(N)=O)NC(=O)c2cc([N+](=O)[O-])cc(I)c2NCC[C@@H](C(N)=O)NC1=O | -34.8 | 32.6 µM [falling, single point] | 29.1 µM [falling, single point] |
| CCOC(=O)N1CCN(C(=O)c2cc3n(n2)C(C(F)(F)F)CC(c2ccc4c(c2)OCO4)N3)CC1 (centres undefined) | 13.8 | 6.51 µM [rising, partial curve] | 6.51 µM [rising, single point] |
| Cc1ccc(-c2nn3nnnc3c3ccccc23)cc1 | 22 | 0.517 µM [rising, full curve, poor fit] | – |
| COc1ccc(S(=O)(=O)N/N=C(/C)c2ccncc2)c(OC)c1 | 11 | – | – |
| CS(=O)(=O)c1ccc(Cl)c(NC(=O)CCCSc2ccccc2)c1 | 10.1 | – | – |
| CN(Cc1cn(Cc2ccccc2)nc1-c1ccc2c(c1)OCO2)Cc1nccn1C | 12.8 | – | 0.92 µM [rising, partial curve] |
| CCCCNC(=O)CN1C(=O)C(CC)Oc2ccc(Cl)cc21 (centres undefined) | -12.6 | – | 1.84 µM [falling, partial curve] |
| Cc1ccc(C(=O)NNC(=O)c2ccc(Br)s2)cc1S(=O)(=O)N1CCOCC1 | 12.1 | – | 6.51 µM [rising, partial curve, poor fit] |
| CCOC(=O)c1c(O)c2cc(Cl)ccc2n(CC)c1=O | -32.3 | 32.6 µM [falling, partial curve, poor fit] | – |
| COCCn1nnnc1C(c1cc(OC)ccc1OC)N1CCc2ccccc2C1 (centres undefined) | 10.1 | – | 8.2 µM [rising, partial curve, poor fit] |
| O=C(c1cc(Cl)ccc1[N+](=O)[O-])N1CCc2ccccc2C1 | -5.94 | – | 2.31 µM [rising, partial curve, poor fit] |
| Cn1c(=O)n(C)c2cc(C(=O)O)ccc21 | -2.11 | – | – |
| O=C(CC1Nc2ccccc2NC1=O)Nc1ccc2c(c1)OCO2 (centres undefined) | -16.1 | – | 3.26 µM [falling, single point] |
| CC(CCc1ccc(O)cc1)NCc1ccc(Cl)cc1Cl (centres undefined) | -26.7 | – | – |
| Cc1cc(C)cc(NC(=O)c2cc3c(=O)n4ccccc4nc3s2)c1 | – | – | 29.1 µM [falling, single point] |
| N/C(=N\OC(=O)Oc1ccccc1)c1ccc([N+](=O)[O-])cc1 | -100 | 7.31 µM [falling, partial curve] | 0.13 µM [falling, full curve, poor fit] |
| CCN1/C(=C/C(C)=C/c2sc3ccccc3[n+]2CC)Sc2ccccc21 | -97.7 | 23.1 µM [falling, single point] | 1.64 µM [falling, full curve] |

Part of the list above, reformatted.
SMILES	cell number change [%]	AC50 [1]	AC50 [2]
Cc1ccc(C(=O)NNC(=O)c2ccc(Br)s2)cc1S(=O)(=O)N1CCOCC1	12.1	–	6.51 µM [rising, partial curve, poor fit]
Cn1c(=O)n(C)c2cc(C(=O)O)ccc21	-2.11	–	–
O=C(CC1Nc2ccccc2NC1=O)Nc1ccc2c(c1)OCO2 (centres undefined)	-16.1	–	3.26 µM [falling, single point]

(list continues)

| SMILES | cell number change [%] | AC50 [1] | AC50 [2] |
| --- | --- | --- | --- |
| c1ccc2c(c1)c1cccc3ccc4cccc2c4c31 | -1.81 | – | – |
| Cc1c(C(C)O)nnn1-c1nonc1N (centres undefined) | -22.3 | – | 0.731 µM [falling, full curve] |
| O=[N+]([O-])c1ccc(CSc2ccc(S(=O)(=O)N3CCCCCC3)cn2)cc1 | -1.61 | – | – |
| CC12CCC(C(N)=O)(c3nc4ccccc4nc31)C2(C)C (centres undefined) | 17.8 | – | 6.51 µM [falling, single point] |
| O=C1c2ccccc2C(=O)N1OCCOCCOCCON1C(=O)c2ccccc2C1=O | -23.5 | 2.59 µM [falling, single point] | 8.2 µM [falling, partial curve] |
| CCN(C(=O)CSc1ncnc2sc(C)c(C)c12)C1CCS(=O)(=O)C1 (centres undefined) | – | – | 29.1 µM [rising, partial curve] |
| CC(=O)NC(C)c1cc(Cl)c2ccccc2c1O (centres undefined) | 19.1 | – | 0.651 µM [rising, partial curve] |
| O=C(COC(=O)C1CC2CCCC(C1)C2=O)NC(=O)c1ccc(OC(F)F)cc1 (centres undefined) | 30.5 | – | – |
| c1ccc(CC2CCN(c3nc4ccccc4n4cnnc34)CC2)cc1 | -61.2 | – | 23.1 µM [falling, single point] |
| CN1CCN(C(=O)C23CC4CC(C)(CC(C)(C4)C2)C3)CC1 | -6.99 | – | 18.4 µM [falling, single point] |
| COC(=O)n1c(=O)oc2cc(S(=O)(=O)N3CCCCC3)ccc21 | -4.63 | – | – |
| CCn1c(=O)c2ccccc2n(Cc2cccc([N+](=O)[O-])c2)c1=O | 29.1 | 1.64 µM [rising, full curve, poor fit] | 29.1 µM [rising, single point] |
| O=C(Nc1ccc2c(c1)nc1n2CCOC1)c1ccco1 | 15.7 | – | 9.2 µM [rising, partial curve] |
| CC(=O)N1CCN(c2ccc(NC(=O)c3cccc(Cl)c3Cl)cc2)CC1 | 7.02 | – | – |
| O=C1NC(=S)N/C1=C/c1cc2c(cc1[N+](=O)[O-])OCO2 | 17.6 | – | – |
| C1=C(CCNCC2CC2)CCCC1 | -13 | – | 0.58 µM [falling, single point] |
| Cc1ccc(CNc2ccc3c(c2)OCO3)cc1 | 165 | 18.4 µM [rising, partial curve] | 20.6 µM [rising, partial curve, poor fit] |
| CCOC(=O)c1c(C)n(C)c2ccc(O)c(CN3CCC(C)CC3)c12 | – | 6.51 µM [rising, single point] | – |
| CC1CCCC(C)N1C(=O)CSc1nnc(-c2c[nH]c3ccccc23)o1 (centres undefined) | -23.7 | – | 0.82 µM [rising, full curve, poor fit] |
| Cc1cc(C)c(NC(=O)c2ccc3nccnc3c2)c(C)c1 | -4.82 | – | – |
